Reference: article PMC2676555
These are yes or no findings as the source states them, for the method shown. Binding seen in cells or lysates may run through a third protein. Binding calls can cover weak binding; strength is not graded here.

Target: Bcl-2 associated athanogene (BAG-1) S, wild type (human)
Assay: co-IP; H1299 cells co-transfected with p73α and wild type or mutant BAG-1S plasmids; lysate in HMKEN buffer (10 mM HEPES pH 7.2, 5 mM MgCl2, 142 mM KCl, 2 mM EGTA, 0.2% IGEPAL); BAG-1 immunoprecipitated with rabbit polyclonal TB3 (pre-immune serum as control), protein G-Sepharose, 4°C; blots for p73 (R26), BAG-1 (G3E2), HSC70 (B6)

B1: p73α (protein, UniProt O15350-1 1-636)
chain: MAQSTATSPDGGTTFEHLWSSLEPDSTYFDLPQSSRGNNEVVGGTDSSMDVFHLEGMTTSVMAQFNLLSSTMDQMSSRAASASPYTPEHAASVPTHSPYAQPSSTFDTMSPAPVIPSNTDYPGPHHFEVTFQQSSTAKSATWTYSPLLKKLYCQIAKTCPIQIKVSTPPPPGTAIRAMPVYKKAEHVTDVVKRCPNHELGRDFNEGQSAPASHLIRVEGNNLSQYVDDPVTGRQSVVVPYEPPQVGTEFTTILYNFMCNSSCVGGMNRRPILIIITLEMRDGQVLGRRSFEGRICACPGRDRKADEDHYREQQALNESSAKNGAASKRAFKQSPPAVPALGAGVKKRRHGDEDTYYLQVRGRENFEILMKLKESLELMELVPQPLVDSYRQQQQLLQRPSHLQPPSYGPVLSPMNKVHGGMNKLPSVNQLVGQPPPHSSAATPNLGPVGPGMLNNHGHAVPANGEMSSSHSAQSMVSGSHCTPPPPYHADPSLVSFLTGLGCPNCIEYFTSQGLQSIYHLQNLTIEDLGALKIPEQYRMTIWRGLQDLKQGHDYSTAQQLLRSSNAATISIGGSGELQRQRVMEAVHFRVRHTITIPNRGGPGGGPDEWADFGFDLPDCKARKQPIKEEFTEAEIH
For B1, the binding was “binds”.
